These are yes or no findings as the source states them, for the method shown. Some binding calls cover weakened binding; strength is not graded here.
Legend:
[1] = biological target: ZIKV EDIII (Zika virus); assay: ELISA, coated antigen
[2] = biological target: ZIKV E protein (Zika virus) (UniProt Q32ZE1); assay: ELISA, coated antigen
[3] = biological target: ZIKV EDIII (Zika virus); assay: ELISA (FIG. 1 and FIG. 2)
[4] = biological target: ZIKV E protein (Zika virus) (UniProt Q32ZE1); assay: ELISA (FIG. 1 and FIG. 2)

Protein sequences, listed by entry. Tags and fused reporters are not part of them. Residues count along the entry.
UniProt Q32ZE1, residues 291-694: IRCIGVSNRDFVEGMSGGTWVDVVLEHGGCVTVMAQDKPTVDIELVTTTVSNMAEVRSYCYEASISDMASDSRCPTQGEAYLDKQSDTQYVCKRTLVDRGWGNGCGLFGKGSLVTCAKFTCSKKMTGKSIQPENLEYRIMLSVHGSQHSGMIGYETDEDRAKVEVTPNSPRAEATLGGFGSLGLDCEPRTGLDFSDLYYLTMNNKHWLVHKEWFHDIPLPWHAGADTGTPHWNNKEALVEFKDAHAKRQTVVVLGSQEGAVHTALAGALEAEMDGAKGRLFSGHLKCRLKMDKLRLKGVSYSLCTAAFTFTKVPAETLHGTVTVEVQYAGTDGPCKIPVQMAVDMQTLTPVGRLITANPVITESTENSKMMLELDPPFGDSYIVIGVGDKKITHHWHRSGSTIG

Measured: binding

B1: ZKA64 (antibody, V domains shown)
VH: QVQLVQSGAEVKKPGASVKVSCKASGYTFTGYHIDWVRQARGQGLEWMGRINPNSGGTNYAQKFQGRVTMTRDTSISTAYMQLSRLRSDDSAVYYCARMSSSIWGFDHWGQGTLVTVSS
VL: EIVMTQSPATLSVSPGERATLSCRASQSVLINLAWYQQKPGQAPRLLIYGASSRATGIPARFSGSGSGTEFTLTISSLQSEDFAVYYCQQYNDWPPITFGQGTRLEIK
binds: all assays above

Source: patent US20200317755A1
